Experimental data from publication PMC9893415.

Target: ABI4 fused to the C-terminal YFP fragment
Assay: split reporter; split-YFP fusions (YFP^n and YFP^c) co-expressed by Agrobacterium infiltration in N. benthamiana leaves; confocal microscopy after 2-3 days; also imaged 2 hours after spraying with eH2O2

binding: no binding
B1: NOVEL CYS-RICH RECEPTOR KINASE (NCRK) fused to the N-terminal YFP fragment (receptor, UniProt Q8VYY5 24-565)
chain: GVSNYTCTCFSSGNRSDILESNCSTSCNCRPDRDQWVCLCPANGFPVIAIGGSNSSCFTSCNCSAGATKSSKKQYLSRKLVIVILLFCGVLISLAFLASMICYICRKDKFSGQTPSVSSDRESSWHSSANLINRKSSVSQSKISISSSVAGCFFQNASLFCVSKPETIHGAIFQFSYTELEQATNKFSSNSVIGHGGSSCVYRGQLKDGKTAAIKRLNTPKGDDTDTLFSTEVELLSRLHHYHVVPLIGYCSEFHGKHAERLLVFEYMSYGSLRDCLDGELGEKMTWNIRISVALGAARGLEYLHEAAAPRILHRDVKSTNILLDENWHAKITDLGMAKCLSSDGLQSGSSSPTTGLQGTFGYFAPEYAIAGCASQMSDVFSFGVVLLELITGRKPIQKPSNNKGEESLVIWAVPRLQDSKRVIEELPDPRLNGKFAEEEMQIMAYLAKECLLLDPESRPTMREVVQILSTITPDTSSRRRNFPINYLFQSNEKKKESKVGWSRGGSKSGQEEETVDLTEPRFESFCLPNVKPVLLEPSAHI

No constants are given. Whether binding was seen depends on the method and setting. Binding seen in cells or lysates may run through a third protein. Where a sequence is shown, tags or fusion partners need not be part of it.
